According to publication PMC9445035:
Results are given in words; binding and its absence hold for the method and conditions named. In cells and extracts the contact can be indirect. Some results given as binding are weak or reduced against the parent protein; the word gives no strength.

Protein sequences, listed by entry. Tags and fused reporters are not part of them.
UniProt Q9R1R0: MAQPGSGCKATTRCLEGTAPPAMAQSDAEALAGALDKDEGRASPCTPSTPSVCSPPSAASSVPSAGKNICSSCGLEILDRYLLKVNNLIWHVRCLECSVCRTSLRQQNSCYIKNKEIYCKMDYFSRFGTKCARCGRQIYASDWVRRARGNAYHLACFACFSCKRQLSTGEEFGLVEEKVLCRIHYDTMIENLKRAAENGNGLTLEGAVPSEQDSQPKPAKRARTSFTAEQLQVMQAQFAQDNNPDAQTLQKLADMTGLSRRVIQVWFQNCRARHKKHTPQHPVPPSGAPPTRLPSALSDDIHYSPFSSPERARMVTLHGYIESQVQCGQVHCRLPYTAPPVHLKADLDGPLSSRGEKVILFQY

Legend:
[1] = biological target: T1, LDB1 (UniProt P70662); experiment: co-IP; Cos7 cells co-transfected with both proteins, lysed 72 h later; lysate incubated overnight at 4 °C with magnetic beads carrying HA or FLAG antibody (IgG isotype controls); lysis and wash buffer 20 mM Hepes pH 7.4, 100 mM KCl, 2 mM MgCl2, 1% Triton X-100; Western blot for MTG8
T1 sequence: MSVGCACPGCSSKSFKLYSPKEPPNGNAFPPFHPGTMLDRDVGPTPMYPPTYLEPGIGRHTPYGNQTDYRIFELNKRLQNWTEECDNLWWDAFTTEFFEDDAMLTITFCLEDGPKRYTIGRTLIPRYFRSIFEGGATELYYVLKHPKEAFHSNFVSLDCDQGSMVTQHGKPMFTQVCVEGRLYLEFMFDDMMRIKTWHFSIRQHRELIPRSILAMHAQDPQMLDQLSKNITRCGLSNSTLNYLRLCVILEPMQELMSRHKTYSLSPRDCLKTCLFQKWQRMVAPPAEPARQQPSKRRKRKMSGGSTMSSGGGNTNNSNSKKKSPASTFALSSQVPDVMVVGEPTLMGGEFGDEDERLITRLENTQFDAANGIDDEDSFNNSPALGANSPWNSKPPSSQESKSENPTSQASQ

[2] = biological target: LHX6 (Myc-HA-HA-LHX6) (mouse) (UniProt Q9R1R0); experiment: as above

B1: MTG8 (protein, UniProt Q61909 1-577)
chain: MPDRTEKHSTMPDSPVDVKTQSRLTPPAMPPPPTTQGAPRTSSFTPTTLTNGTSHSPTALNGAPSPPNGFSNGPSSSSSSSLANQQLPPACGARQLSKLKRFLTTLQQFGNDISPEIGERVRTLVLGLVNSTLTIEEFHSKLQEATNFPLRPFVIPFLKANLPLLQRELLHCARLAKQNPAQYLAQHEQLLLDASTTSPVDSSELLLDVNENGKRRTPDRTKENGFDREPLHSEHPSKRPCTISPGQRYSPNNGLSYQPNGLPHPTPPPPQHYRLDDMAIAHHYRDSYRHPSHRDLRDRNRPMGLHGTRQEEMIDHRLTDREWAEEWKHLDHLLNCIMDMVEKTRRSLTVLRRCQEADREELNYWIRRYSDAEDLKKGGSSSSSHSRQQSPVNPDPVALDAHREFLHRPASGYVPEEIWKKAEEAVNEVKRQAMTELQKAVSEAERKAHDMITTERAKMERTVAEAKRQAAEDALAVINQQEDSSESCWNCGRKASETCSGCNTARYCGSFCQHKDWEKHHHICGQTLQAPQQGDTPAVSSSVTPSSGAGSPMDTPPAATPRSTTPGTPSTIETTPR
binding [1]: no binding | binding [2]: binds
